Source: patent US20040001801A1 (priority 2002, published 2004)

How the values were obtained:
[1] = general procedure: Fmoc solid-phase peptide synthesis; Fmoc-nL-Wang resin; HOBT, HBTU, DIEA; details: whole synthesis, analytical HPLC, scale 3 mmol
[2] = general procedure: Fmoc solid-phase peptide synthesis; preloaded Wang resin; HOBT, HBTU, DIEA; details: for final HPLC purity: analytical HPLC
[3] = general procedure: Fmoc solid-phase peptide synthesis; Fmoc-Ala-Wang resin; HOBT, HBTU, DIEA; details: whole synthesis, analytical HPLC, scale of the general procedure 0.25 mmol

Question: Which “crude HPLC purity” value [1] does the source give for Ac-Gly-Ser-Gly-Arg-Ser-nLeu-OH here?
Answer: purity=90%

Question: What about the “final HPLC purity” value ([2]; whole synthesis, scale of the general procedure 0.25 mmol) of the same substance?
Answer: 97% purity

Question: And the isolated mass ([2]; whole synthesis, scale 3 mmol)?
Answer: 1.04 g

Question: And the isolated yield ([2]; whole synthesis, scale 3 mmol)?
Answer: 56%

Question: Which “crude HPLC purity” value [3] does the source give for Ac-RQSRAA-OH here?
Answer: approximately 95% purity

Question: With “PEPTIDE1{[ac].G.S.G.R.S.[nLeu].[Dox]}$$$$V2.0” as the substance, how does the conjugation yield ([2]; conjugation step) read?
Answer: 45%

Question: And the “final HPLC purity” value ([2]; conjugation step)?
Answer: 95% purity

For some of these results: Strings that start with PEPTIDE1 are HELM notation: dots part the residues, brackets hold end groups and non-standard residues.
